In PubChem BioAssay AID624291 (National Center for Advancing Translational Sciences (NCATS), 2012):
Screen size: about 350,000 compounds; about 220 (0.063%) were called active. Inconclusive means that the source gave no clear call. Such entries were picked first, then a sample of the others. Calls come from the whole dose curve; as a rule, active = well fitted activation curve with a large enough effect; inconclusive = small, poorly fitted or top-dose-only effect; inactive = no such curve, though single readings can be large or run the other way. Where the call is inconclusive, the potency comes from a doubtful curve fit.

assay: qHTS for Activators of Integrin-Mediated Alleviation for Muscular Dystrophy; settings: alpha7betagal myoblasts, beta-gal FDG fluorescence, 48 h; activation: at 38.3 µM (top of the series); note: nearly all actives have a fitted effect of over 60% in size;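 for activation: 100% = response of the positive control SU9516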
Summary of the method: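 alpha7betagal+/- myoblasts (passage 13, 250/well) treated 48 h at 37C with compounds at 1:260 dilution of DMSO stock. Lysed, then beta-galactosidase activity read as FDG fluorescence (ex 480/em 540) after 30 min, with pre-read for autofluorescence.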
Potency is the fitted concentration of half-maximal effect.

| SMILES | Potency | activation |
| --- | --- | --- |
| CC(=C\c1ccccc1)/C=C1/SC(=S)N(CCCC(=O)O)C1=O | inconclusive: 7.08 µM [activator, partial curve, poor fit] |  |
| Oc1ccc(-c2nccc(-c3cccs3)n2)cc1 |  | inactive: 7.14% |
| NC(=S)NNc1cc(Cl)cc(Cl)c1 |  | inactive: -34.4% |
| COc1ccc(NC(=O)N2CCc3ccccc3C2)cc1OC | inconclusive: 2.24 µM [activator, single point] |  |
| C(=C\c1nc2ccccc2[nH]1)/c1ccccc1 | inconclusive: 2.51 µM [activator, partial curve, poor fit] |  |
| Cc1ccc(S(=O)(=O)Nc2nc3ccc(S(=O)(=O)N4CCCC4)cc3s2)cc1 | inconclusive: 10 µM [activator, single point] |  |
| CC/C(O)=C1\C(=O)CCCC1=NCCc1c(C)[nH]c2ccc(C)cc12 | inconclusive: 1 µM [activator, full curve, poor fit] |  |
| Cc1ccc(CS(=O)(=O)c2ccc(C(=O)N3CCCCC3)cc2[N+](=O)[O-])cc1 |  | inactive: -52.1% |
| COc1ccc(Cn2c(=S)[nH]c3cc(OC)c(OC)cc3c2=O)cc1 | inconclusive: 2.51 µM [activator, single point] |  |
| COc1ccc2c(c1)c(C(C)=O)c(C)n2CCc1ccc(OC)c(OC)c1 | inconclusive: 5.01 µM [activator, single point] |  |
| CCOc1ccc(N2CC(C(=O)Nc3ccc(S(=O)(=O)N4CCCC4)cc3)CC2=O)cc1 (stereo not drawn) |  | inactive: 18.6% |
| COc1ccc(NC(=O)C2CCCN(C(=O)Nc3ccc(F)cc3)C2)cc1OC (stereo not drawn) | inconclusive: 20 µM [activator, single point] |  |
| O=C(CN1CCN(c2ccc(F)cc2)CC1)Nc1cccnc1Cl | inconclusive: 0.501 µM [activator, full curve, poor fit] |  |
| CCc1cccc(NC(=O)C2CCCN2S(=O)(=O)c2ccc3c(c2)n(C)c(=O)c(=O)n3C)c1 (stereo not drawn) | inconclusive: 5.01 µM [activator, single point] |  |
| CCC(C)c1ccc2oc(-c3ccc(NC(=O)Cn4cnc5c(=O)n(C)c(=O)n(C)c54)cc3)nc2c1 (stereo not drawn) |  | inactive: -14.3% |
| COCCn1c(C)cc(C(=O)COC(=O)c2cccc(O)c2)c1C | inconclusive: 28.2 µM [activator, single point] |  |
| CCc1nnc(NC(=O)C2=NN(C3CCS(=O)(=O)C3)C(=O)CC2)s1 (stereo not drawn) | inconclusive: 3.98 µM [activator, single point] |  |
| COc1ccc(C(=O)N/C(=C\c2cn(S(=O)(=O)N(C)C)c3ccccc23)C(=O)NCCN2CCOCC2)cc1 | inconclusive: 3.98 µM [activator, single point] |  |

Three structures already listed, arranged by SMILES length, largest number first.

| SMILES | Potency | activation |
| --- | --- | --- |
| CCc1cccc(NC(=O)C2CCCN2S(=O)(=O)c2ccc3c(c2)n(C)c(=O)c(=O)n3C)c1 (stereo not drawn) | inconclusive: 5.01 µM [activator, single point] |  |
| COc1ccc2c(c1)c(C(C)=O)c(C)n2CCc1ccc(OC)c(OC)c1 | inconclusive: 5.01 µM [activator, single point] |  |
| CC(=C\c1ccccc1)/C=C1/SC(=S)N(CCCC(=O)O)C1=O | inconclusive: 7.08 µM [activator, partial curve, poor fit] |  |
